Values from PubChem BioAssay AID1259424 (University of Nebraska Medical Center, 2018)

- Aim: 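Seek colon cancer survival genes behaving like KSR1, using a six-gene signature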 (primary screen)
- System: human HCT116 colon cancer cells
- Knock-down reagent: siRNA pool against human genes, 50 nM
- Measurement: 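Log2 levels of six mRNAs (branched-DNA multiplex), adjusted by two reference genes and the non-targeting median, then scored against the average KSR1 knockdown pattern as Pearson r and euclidean distance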
- Scale: mean correlation with KSR1 profile and KSR1 correlation: higher = expression change more like KSR1 knockdown; mean distance from KSR1 profile: higher = expression change less like KSR1 knockdown
The deposit covers about 14,000 reagents; this is a part drawn at random. 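Higher correlation or smaller distance means closer resemblance to KSR1 loss; control wells, including KSR1 knockdowns, recur on many plates.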 Not all columns of the deposit are shown. No sequences are given here. The record does not give: the time to read-out.

| Gene | mean correlation with KSR1 profile | mean distance from KSR1 profile | KSR1 correlation, replicate 1 |
| --- | --- | --- | --- |
| KITLG | 0.0191 | 1.08 | -0.0141 |
| ZNF354C | 0.0847 | 2.84 | -0.258 |
| ZNF839 | 0.641 | 3.02 | 0.69 |
| AKAP8 | -0.129 | 3.79 | 0.209 |
| ZXDA | -0.582 | 4.37 | -0.612 |
| TMED7 | -0.172 | 2.1 | -0.0996 |
| BCO1 | -0.542 | 1.28 | -0.264 |
| PSME4 | -0.684 | 1.61 | -0.765 |
| DBF4 | -0.0826 | 2.53 | -0.0184 |
| TECPR1 | -0.094 | 2.52 | -0.00862 |
| SPATA31H1 | 0.786 | 2.68 | 0.716 |

Part of the list above, reformatted:
PSME4 — mean correlation with KSR1 profile: -0.684; mean distance from KSR1 profile: 1.61; KSR1 correlation, replicate 1: -0.765
DBF4 — mean correlation with KSR1 profile: -0.0826; mean distance from KSR1 profile: 2.53; KSR1 correlation, replicate 1: -0.0184
TECPR1 — mean correlation with KSR1 profile: -0.094; mean distance from KSR1 profile: 2.52; KSR1 correlation, replicate 1: -0.00862
SPATA31H1 — mean correlation with KSR1 profile: 0.786; mean distance from KSR1 profile: 2.68; KSR1 correlation, replicate 1: 0.716

The results go on.
| Gene | mean correlation with KSR1 profile | mean distance from KSR1 profile | KSR1 correlation, replicate 1 |
| --- | --- | --- | --- |
| SOS1 | -0.506 | 4.67 | -0.603 |
| KCNK13 | -0.411 | 2.89 | -0.347 |
| EIF3D | -0.132 | 2.08 | -0.0434 |
| ZNF333 | 0.778 | 1.54 | 0.618 |
| BMPR2 | 0.461 | 1.42 | 0.63 |
| VPS13A | 0.19 | 1.72 | -0.0829 |
| TSPOAP1 | 0.633 | 0.912 | 0.64 |
| ABCA11P | 0.296 | 1.72 | 0.502 |
| SCARB1 | -0.055 | 2 | -0.182 |
| PCDHGA7 | -0.0348 | 2.76 | -0.134 |
| FOXP3 | 0.699 | 1.45 | 0.711 |
| NR1I3 | 0.199 | 1.41 | -0.000309 |
| FBXO31 | -0.321 | 2.61 | -0.201 |
| RABIF | 0.531 | 1.55 | 0.0496 |
| USP25 | -0.414 | 2.38 | -0.295 |
| MAN1A2 | -0.703 | 1.94 | -0.697 |
| DAZ4 | -0.184 | 1.2 | -0.247 |
| LYRM1 | 0.237 | 1.92 | 0.467 |
| KRT86 | 0.0322 | 1.55 | 0.0718 |
| H4C9 | 0.744 | 3.22 | 0.467 |
| IRAG1 | -0.497 | 3.31 | -0.775 |
| CEP131 | -0.13 | 1.92 | -0.144 |
| PLA2G1B | 0.645 | 1.83 | 0.701 |
